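Polyketide synthase Pks13, Mycobacterium tuberculosis (UniProt I6X8D2). Enzyme assay of the thioesterase domain of polyketide synthase 13; the read-out is not stated. Tested at 30 µM. Higher reads as stronger inhibition (inferred from which compounds were picked for retests). About 67,000 compounds were tested under these conditions; 0.46% (about 300) showed 50% or more at least once.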

Sequences of proteins named here, by UniProt entry; tags and fusion partners are left off.
UniProt I6X8D2, whole entry: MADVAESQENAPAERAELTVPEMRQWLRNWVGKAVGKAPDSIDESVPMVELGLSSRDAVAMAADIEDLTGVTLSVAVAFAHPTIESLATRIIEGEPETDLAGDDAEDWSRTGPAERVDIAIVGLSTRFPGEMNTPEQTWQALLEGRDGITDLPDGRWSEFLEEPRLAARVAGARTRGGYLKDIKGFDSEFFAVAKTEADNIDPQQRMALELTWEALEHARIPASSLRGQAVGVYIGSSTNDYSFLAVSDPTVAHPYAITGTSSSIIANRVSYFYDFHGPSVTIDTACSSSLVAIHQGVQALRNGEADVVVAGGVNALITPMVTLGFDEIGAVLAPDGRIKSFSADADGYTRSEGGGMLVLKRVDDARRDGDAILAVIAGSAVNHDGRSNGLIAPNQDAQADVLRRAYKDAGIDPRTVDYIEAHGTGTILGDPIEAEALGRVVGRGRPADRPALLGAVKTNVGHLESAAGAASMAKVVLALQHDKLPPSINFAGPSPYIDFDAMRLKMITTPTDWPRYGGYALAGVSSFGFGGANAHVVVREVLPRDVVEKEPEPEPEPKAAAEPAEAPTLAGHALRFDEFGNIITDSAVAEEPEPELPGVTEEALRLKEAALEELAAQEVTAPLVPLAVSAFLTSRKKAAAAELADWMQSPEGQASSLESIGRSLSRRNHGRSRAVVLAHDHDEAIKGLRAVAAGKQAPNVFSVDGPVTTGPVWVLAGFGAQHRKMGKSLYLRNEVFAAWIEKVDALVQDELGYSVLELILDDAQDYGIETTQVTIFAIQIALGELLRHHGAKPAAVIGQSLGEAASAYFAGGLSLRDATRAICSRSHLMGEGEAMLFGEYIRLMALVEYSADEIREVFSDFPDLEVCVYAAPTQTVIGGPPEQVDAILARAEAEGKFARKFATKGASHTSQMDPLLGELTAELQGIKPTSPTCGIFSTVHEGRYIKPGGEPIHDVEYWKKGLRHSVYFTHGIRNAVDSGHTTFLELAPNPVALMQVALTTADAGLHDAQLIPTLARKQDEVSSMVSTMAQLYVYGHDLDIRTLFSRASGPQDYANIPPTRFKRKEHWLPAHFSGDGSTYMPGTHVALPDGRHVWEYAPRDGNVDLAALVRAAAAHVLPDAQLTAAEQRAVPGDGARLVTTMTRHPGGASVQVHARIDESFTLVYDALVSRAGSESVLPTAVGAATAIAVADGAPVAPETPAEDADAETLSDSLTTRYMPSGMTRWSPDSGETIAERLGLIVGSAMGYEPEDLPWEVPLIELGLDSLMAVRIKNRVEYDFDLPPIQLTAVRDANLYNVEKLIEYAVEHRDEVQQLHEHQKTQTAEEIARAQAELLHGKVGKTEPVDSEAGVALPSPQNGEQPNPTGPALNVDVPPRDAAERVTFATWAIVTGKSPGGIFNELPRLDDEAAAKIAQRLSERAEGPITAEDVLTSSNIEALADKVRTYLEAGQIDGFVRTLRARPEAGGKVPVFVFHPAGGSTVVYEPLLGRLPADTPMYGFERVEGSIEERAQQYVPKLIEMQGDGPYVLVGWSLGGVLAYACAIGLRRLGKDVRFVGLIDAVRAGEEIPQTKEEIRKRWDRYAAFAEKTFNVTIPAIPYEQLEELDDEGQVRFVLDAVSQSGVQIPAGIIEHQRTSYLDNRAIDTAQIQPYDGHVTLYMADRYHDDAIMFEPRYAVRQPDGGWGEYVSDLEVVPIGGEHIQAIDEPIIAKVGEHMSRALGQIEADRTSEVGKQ

Each number is a percent effect as filed. The record does not define 0% and 100%; most values in the screen are far below 50% and negative numbers occur (in some assays of this library far below -100). The compounds are a random part of those screened.

compound: Cc1ncc(CN2CCOC(CN(C)c3cccnn3)C2)s1 (configuration not stated)
percent effect: 8.448%

compound: CN(Cc1cccs1)C(=O)CNC1CCc2ncnn2C1 (configuration not stated)
percent effect: -20.28%

compound: O=C1N(CC2CC2)CCC12CCN(c1ncccn1)CC2
percent effect: 2.587%

compound: COc1ccc(C(O)C(=O)N2CCC(c3nccn3C(C)C)CC2)cc1 (configuration not stated)
percent effect: -0.7968%

compound: CN(C)C(=O)CN1CCC(c2c(C(N)=O)sc3ncccc23)C1 (configuration not stated)
percent effect: 3.379%

compound: COc1cc(N2CCN(CC3CC3)c3nc(C)ccc3C2)ncn1
percent effect: -13.51%

compound: Cc1ccc(C(=O)N2CC(Oc3ccccc3C)C2)s1
percent effect: 9.331%

compound: CC(C)c1nccn1C1CCCN(C(=O)CCNS(C)(=O)=O)C1 (configuration not stated)
percent effect: -48.89%

compound: Cc1ccc(NC(=O)Cn2cc(I)cn2)cc1
percent effect: -12.7%

compound: COc1cccc(C(O)Cn2ncc3ncccc3c2=O)c1 (configuration not stated)
percent effect: -18.54%

compound: COc1ccc2c(c1)C(C(=O)N(C)CCn1ccnc1C)CC(=O)N2 (configuration not stated)
percent effect: 2.908%

compound: c1ccc(COC[C@H]2CC[C@H]3[C@H](CCN3Cc3ccccn3)O2)nc1
percent effect: 3.855%

compound: CCN(CCNC(=O)c1ccccc1Br)C1CC1
percent effect: 1.143%

compound: CC(=O)NC1CCN(c2nc(C)nc3c2c(C)nn3C)C1 (configuration not stated)
percent effect: -0.4712%

compound: Cc1nc2cc(C(=O)N3CCCC(n4cncn4)C3)ccc2n1C (configuration not stated)
percent effect: -30.57%

compound: Cc1nc2ccccc2c(=O)n1CCC(=O)N1CCSCC1
percent effect: -14.69%

compound: O=C(c1ccno1)N1CCOC[C@H](Oc2ccc(C(F)(F)F)cc2)C1
percent effect: -13.44%

compound: NC(=O)CN1CCC(c2csc(Nc3cnccn3)n2)CC1
percent effect: 2.458%

compound: CCS(=O)(=O)CCN1CCC(N(C)Cc2ncc(C)o2)C1 (configuration not stated)
percent effect: -4.627%

compound: O=C(CCc1cccs1)N1CCc2[nH]nc(COc3ccccc3)c2C1
percent effect: -9.322%

compound: Cc1nnc(CN2CCCC2c2ccc3c(c2)OCCO3)n1C (configuration not stated)
percent effect: -14.32%

compound: CCN(C(=O)c1cnc(-c2ccc3c(c2)OCO3)s1)C1CC1
percent effect: 28.91%

compound: O=C(NCc1nnc2n1CCC2)c1cccc(Br)c1
percent effect: -17.33%

compound: Cc1nccc(C(=O)NC(COCC(C)C)c2ccco2)n1 (configuration not stated)
percent effect: -4.602%

compound: O=C(CCn1cccn1)NCCOc1ccc2c(c1)OCO2
percent effect: 1.096%

compound: COc1cccc(OCCn2c(C)c(C)oc2=O)c1
percent effect: -0.3584%

compound: CN(Cc1ccc(F)cc1)CC1(O)CCN(C(=O)c2ccn(C)n2)C1 (configuration not stated)
percent effect: -5.016%

compound: CC(C)NC(=O)N1CCC2(CC1)NC(=O)[C@H]1CN(C(=O)N(C)C)C[C@H]12
percent effect: -31.19%

compound: Cc1nc(CO[C@@H]2CN(Cc3ccc(F)cc3)[C@@H]3COC[C@@H]32)cs1
percent effect: -21.63%

compound: Cc1cc(-c2ccc(=O)n(C3CCN(C(=O)C4CC4)CC3)n2)c(C)o1
percent effect: 2.305%

compound: COc1ccc(C(=O)C2CCCN(c3cc(OC)ncn3)C2)c(C)c1 (configuration not stated)
percent effect: -25.13%

compound: CSCC(=O)Nc1ncc(I)cc1C
percent effect: -17.32%

compound: O=C(Nc1cccc(CNCc2csc(Br)c2)c1)C1CC1
percent effect: 41.39%

compound: CCN1CCC(CNC(=O)c2cc(Cl)c[nH]2)CC1
percent effect: -3.906%

compound: CC(=O)N1C[C@@H]2C(=O)N(C)C3(CCN(C(=O)C(C)C)CC3)[C@@H]2C1
percent effect: -20.43%

compound: O=C1CC(c2ccncc2)C2(CCN(Cc3cccnc3)CC2)N1 (configuration not stated)
percent effect: -10.4%

compound: COCc1nc(C2CCN(Cc3nccn3C)CC2)no1
percent effect: -18.35%

compound: Cc1nc(Nc2cnccn2)cc(C2CCCN(C(C)C)C2)n1 (configuration not stated)
percent effect: 0.9065%

compound: CCCn1cc(NC(=O)c2cccc(CN3CC=CC3)c2)nn1
percent effect: -3.936%

compound: COc1ccc(-c2nccn2CCN2CCCCC2)c(OC)c1OC
percent effect: 8.289%

compound: Cc1cc(C)n(CC2CN(CC(=O)NC3CCCC3)CCO2)n1 (configuration not stated)
percent effect: -15.47%

compound: COc1c(C(=O)NCc2cnn(C)c2C)nnn1Cc1ccccc1
percent effect: -12.41%

compound: CN1CCN(CCOc2ccc(NC(=O)c3ccc[nH]3)cc2)CC1
percent effect: -17.27%

compound: O[C@H]1Cc2ccccc2[C@H]1n1ccnc1-c1cc2n(n1)CCNC2
percent effect: -12.3%

compound: Cc1csc(N2CCCN(C(=O)C3(C#N)CCCC3)CC2)n1
percent effect: -10.11%

compound: COc1cccn(CC(=O)N(C)Cc2ccoc2)c1=O
percent effect: -3.705%

compound: CCCN(Cc1cccnc1)C(=O)C1CCCN(C)C1 (configuration not stated)
percent effect: 2.233%

compound: Clc1ccc(C2(NCc3noc(C4CC4)n3)CCCC2)cc1
percent effect: -16.33%

compound: c1ncn(CC2CCCN2Cc2cn3ccsc3n2)n1 (configuration not stated)
percent effect: -11.44%

compound: CCC(NS(C)(=O)=O)c1ccccc1OC (configuration not stated)
percent effect: -46.37%

compound: Cc1nc(C)n(CCCNc2ncnc3onc(C)c23)n1
percent effect: -17.48%

compound: COc1ccc2c(c1)C(C(=O)N(C)CCCc1nccn1C)CC(=O)N2 (configuration not stated)
percent effect: -10.39%

compound: CNc1nc(C)c(C(=O)N2CCC(C(O)Cc3ccccc3)CC2)s1 (configuration not stated)
percent effect: -14.75%

compound: Cc1cc(C)nc(N2CCC(NCCSc3nnnn3C)CC2)n1
percent effect: -12.23%

compound: Cc1ccc(CN2CCc3ncnc(-c4ccoc4)c3CC2)o1
percent effect: -2.333%

compound: Cc1nn(C)c(C)c1C1CCCN1Cc1cn2ccsc2n1 (configuration not stated)
percent effect: -12.05%

Repeated from the top, 3 entries:

For Cc1ncc(CN2CCOC(CN(C)c3cccnn3)C2)s1 (configuration not stated) the result was 8.448%.
For CN(Cc1cccs1)C(=O)CNC1CCc2ncnn2C1 (configuration not stated) the result was -20.28%.
For O=C1N(CC2CC2)CCC12CCN(c1ncccn1)CC2 the result was 2.587%.

Source: ChEMBL document CHEMBL3988442, “University of Dundee, Small-Polar-MMV Screening Library” (2021).